Results deposited as PubChem BioAssay AID652272 (Drosophila RNAi Screening Center, 2013).
The screen tested about 21,000 reagents; below is an unselected part of those with a known target gene and a result. Over the whole deposit, 503 (2.4%) were called active. 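Raw plate light values, not normalised; calls rest on replicate z-scores that were not deposited; hits include reporter decreases as well as increases.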 The numbers tell different reagents against one gene apart. Names joined by + are all predicted targets of the reagent. Not given: the amount of reagent, the time to read-out.

- Assay: 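Genome-wide knock-down search for components of Hedgehog signalling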 (primary screen)
- Cell system: Drosophila clone 8 (Cl8) cells
- Reagent: long dsRNA against Drosophila genes
- Read-out: 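Plate reader light from a firefly reporter under a ptc promoter fragment that responds to Hedgehog, with Renilla light as transfection reference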
- Direction: firefly Hh reporter signal: higher = more ptc reporter light; Renilla reference signal: higher = more Renilla control light
- Rule for the call: 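Hit when the z-score averaged over two replicates is under -2 or over +3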
- Meaning of the calls: active = hit: reporter lowered or raised; inactive = not a hit

| target gene | reagent | firefly Hh reporter signal, replicate 1 | firefly Hh reporter signal, replicate 2 | firefly Hh reporter signal, replicate 3 | Renilla reference signal, replicate 1 | Renilla reference signal, replicate 2 | Outcome |
| --- | --- | --- | --- | --- | --- | --- | --- |
| Pfdn4 | 1 | 74360 | 74614 | – | 8380 | 5301 | inactive |
| CG14659 | 1 | 1.23e5 | 1.29e5 | – | 3856 | 2288 | inactive |
| ken | 1 | 25067 | 17312 | – | 1829 | 1024 | active |
| RpL18 | 1 | 47303 | 2.11e5 | 41920 | 8679 | 18058 | active |
| Sptr | 1 | 86644 | 60356 | – | 2362 | 1904 | inactive |
| EMC1 | 1 | 1.18e5 | 1.17e5 | – | 5180 | 4709 | inactive |
| CG14860 | 1 | 1.40e5 | 1.37e5 | – | 5792 | 2839 | inactive |
| CG33777 | 1 | 1.16e5 | 1.91e5 | – | 3287 | 8434 | inactive |
| CG5808 | 1 | 1.15e5 | 56656 | – | 5217 | 2973 | inactive |
| CG15142 | 1 | 1.15e5 | 46343 | – | 3577 | 4576 | inactive |
| Acbp1 | 1 | 97637 | 59317 | – | 2500 | 5040 | inactive |
| CG8072 | 1 | 55976 | 56364 | 59894 | 5107 | 3713 | inactive |
| swa | 1 | 86026 | 72097 | – | 2016 | 1616 | inactive |
| mRpS21 | 1 | 60282 | 3.33e5 | – | 12662 | 6730 | inactive |
| CG7304 | 1 | 95667 | – | – | 3667 | 2833 | inactive |
| CG1631 | 1 | 41420 | 1.20e5 | – | 1337 | 5408 | inactive |
| Cyp9c1 | 1 | 96720 | 47094 | – | 3896 | 1861 | inactive |
| Mppe | 1 | 57216 | 55346 | – | 3186 | 2113 | inactive |
| CG13631 | 1 | 1.59e5 | 1.06e5 | – | 6982 | 4570 | inactive |
| Nckx30C | 1 | 98000 | 65829 | – | 2403 | 5306 | inactive |
| Nckx30C | 2 | 1.20e5 | 89648 | – | 3244 | 6656 | inactive |
| Nckx30C | 3 | 99648 | 75545 | – | 2401 | 5472 | inactive |
| Nckx30C | 4 | 74848 | 50048 | – | 2384 | 4673 | inactive |
| CG34231 | 1 | 1.30e5 | 2.03e5 | – | 3747 | 8680 | inactive |
| CG12929 | 1 | 1.41e5 | 93234 | – | 3488 | 7114 | inactive |
| qkr58E-1 | 1 | 52749 | 53528 | – | 2360 | 2112 | inactive |
| CG8066 | 1 | 62576 | 95443 | – | 1445 | 2518 | inactive |
| Cht5 | 1 | 2.01e5 | 1.35e5 | – | 7104 | 5181 | inactive |
| Flad2 | 1 | 89117 | 50231 | – | 2313 | 5075 | inactive |
| Nthl1 | 1 | 96762 | 43442 | – | 2376 | 3489 | inactive |
| CG6142 | 1 | 5.67e5 | 1.37e5 | – | 27964 | 4068 | inactive |
| Sgs7 | 1 | 68962 | 34435 | 46876 | 2982 | 2929 | inactive |
| BicD | 1 | 71600 | 54871 | – | 2937 | 1994 | inactive |
| obst-J | 1 | 75046 | 1.37e5 | – | 1728 | 3557 | inactive |
| CG14205 | 1 | 1.08e5 | 2.98e5 | – | 4263 | 11987 | inactive |
| Argk1 | 1 | 6.59e5 | 2.00e5 | 1.34e5 | 5524 | 5235 | inactive |
| Argk1 | 2 | 73144 | 70330 | – | 7769 | 355 | inactive |
| Argk1 | 3 | 1.03e5 | 64563 | – | 4000 | 2584 | inactive |
| Tep3 | 1 | 1.16e5 | 57450 | – | 3600 | 3396 | inactive |
| Pof | 1 | 1.03e5 | 55714 | – | 3735 | 2121 | inactive |
| Ak1 | 1 | 60653 | 33943 | 62961 | 3379 | 4186 | inactive |
| MCTS1 | 1 | 1.07e5 | 85617 | – | 2832 | 2564 | inactive |
| CG6290 | 1 | 1.60e5 | 1.16e5 | – | 3749 | 2773 | inactive |
| Cyp4s3 | 1 | 1.55e5 | 3.83e5 | – | 4961 | 15061 | inactive |
| CG34230 | 1 | 1.31e5 | 2.26e5 | – | 3184 | 8407 | inactive |
| Cpr72Ec | 1 | 1.15e5 | 78041 | – | 4378 | 2680 | inactive |
| CG11811 | 1 | 48049 | 38963 | 57930 | 3587 | 4372 | inactive |
| CG18476 | 1 | 87850 | 81808 | – | 3225 | 3161 | inactive |
| Sytbeta | 1 | 1.48e5 | – | – | 6569 | 4080 | inactive |
| Sytbeta | 2 | 1.03e5 | – | – | 1654 | 2609 | inactive |
| CG34425 | 1 | 1.64e5 | 1.52e5 | – | 5305 | 4176 | inactive |
| CG13058 | 1 | 1.61e5 | – | – | 2493 | 5144 | inactive |
| CG5790 | 1 | 71798 | 96131 | – | 2821 | 3703 | inactive |
| CG10874 | 1 | 77885 | 90055 | – | 2395 | 2296 | inactive |
| CG2217 + CG42740 | 1 | 1.02e5 | 76071 | – | 2396 | 2195 | inactive |
| EndoU | 1 | 82715 | 78272 | – | 2459 | 2794 | inactive |
| CG7912 | 1 | 1.13e5 | 1.21e5 | – | 4288 | 3714 | inactive |

Copied from above, 8 entries:
| target gene | reagent | firefly Hh reporter signal, replicate 1 | firefly Hh reporter signal, replicate 2 | firefly Hh reporter signal, replicate 3 | Renilla reference signal, replicate 1 | Renilla reference signal, replicate 2 | Outcome |
| --- | --- | --- | --- | --- | --- | --- | --- |
| swa | 1 | 86026 | 72097 | – | 2016 | 1616 | inactive |
| mRpS21 | 1 | 60282 | 3.33e5 | – | 12662 | 6730 | inactive |
| CG7304 | 1 | 95667 | – | – | 3667 | 2833 | inactive |
| CG1631 | 1 | 41420 | 1.20e5 | – | 1337 | 5408 | inactive |
| Cyp9c1 | 1 | 96720 | 47094 | – | 3896 | 1861 | inactive |
| Mppe | 1 | 57216 | 55346 | – | 3186 | 2113 | inactive |
| CG13631 | 1 | 1.59e5 | 1.06e5 | – | 6982 | 4570 | inactive |
| Nckx30C | 1 | 98000 | 65829 | – | 2403 | 5306 | inactive |
